PubChem BioAssay AID1224827, NIAID, 2016
Aim: 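Identify regulators of the macrophage TNF-alpha response to bacterial LPS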 (follow-up of hits). Cells: RAW264.7 G9 mouse macrophage reporter clone. Reagents: single siRNA against mouse genes, 100 nM siRNA. Time to read-out: siRNA for 2 days, then LPS about 16 h. Challenge: bacterial lipopolysaccharide (LPS), 10 ng/ml, cells fixed after overnight (about 16 h) stimulation. Detection: 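TNF promoter reporter red fluorescence in nuclei, background subtracted, normalised per plate and to non-targeting control siRNA, as z-scores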. Direction: TNF reporter z-score, mean: higher = stronger Tnf promoter reporter signal. Hit rule: 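Active siRNA: replicate-mean z-score of 2 or more, or -2 or less; no calls for control wells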.
In all, the deposit lists about 3,800 reagents; shown is an unselected part. About 2,200 of all reagents (57%) count as active. 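Active means a strong reporter change in either direction; calls are per siRNA, not per gene; qiagen siRNAs gave weaker effects.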 Reagents against one gene are numbered here. Further read-outs or replicates are left out here.

Hsp90b1 #1: TNF reporter z-score, mean = 0.73; Outcome = inactive
Hsp90b1 #2: TNF reporter z-score, mean = -1.48; Outcome = inactive
Hsp90b1 #3: TNF reporter z-score, mean = -2.47; Outcome = active
Hsp90b1 #4: TNF reporter z-score, mean = 0.292; Outcome = inactive
Hsp90b1 #5: TNF reporter z-score, mean = 0.226; Outcome = inactive
Hsp90b1 #6: TNF reporter z-score, mean = -3.31; Outcome = active
Apool #1: TNF reporter z-score, mean = 1.09; Outcome = inactive
Apool #2: TNF reporter z-score, mean = -1.53; Outcome = inactive
Apool #3: TNF reporter z-score, mean = -5.56; Outcome = active
Apool #4: TNF reporter z-score, mean = 2.66; Outcome = active
Apool #5: TNF reporter z-score, mean = -0.996; Outcome = inactive
Apool #6: TNF reporter z-score, mean = -2.62; Outcome = active
Ptpn3 #1: TNF reporter z-score, mean = 1.68; Outcome = inactive
Ptpn3 #2: TNF reporter z-score, mean = -0.0624; Outcome = inactive
Ptpn3 #3: TNF reporter z-score, mean = -1.94; Outcome = inactive
Mpzl3 #1: TNF reporter z-score, mean = -3.33; Outcome = active
Mpzl3 #2: TNF reporter z-score, mean = -3.54; Outcome = active
Mpzl3 #3: TNF reporter z-score, mean = -6.05; Outcome = active
Mpzl3 #4: TNF reporter z-score, mean = 4.61; Outcome = active
Mpzl3 #5: TNF reporter z-score, mean = 1.83; Outcome = inactive
Mpzl3 #6: TNF reporter z-score, mean = -3.07; Outcome = active
Akt1s1 #1: TNF reporter z-score, mean = -1.12; Outcome = inactive
Akt1s1 #2: TNF reporter z-score, mean = -3.07; Outcome = active
Akt1s1 #3: TNF reporter z-score, mean = -4.11; Outcome = active
Akt1s1 #4: TNF reporter z-score, mean = 3.13; Outcome = active
Akt1s1 #5: TNF reporter z-score, mean = 3.46; Outcome = active
Akt1s1 #6: TNF reporter z-score, mean = -1.28; Outcome = inactive

Not a retest: 3 of the entries above.
Mpzl3 #4: TNF reporter z-score, mean = 4.61; Outcome = active
Mpzl3 #5: TNF reporter z-score, mean = 1.83; Outcome = inactive
Mpzl3 #6: TNF reporter z-score, mean = -3.07; Outcome = active

Continued:
Actg1 #1: TNF reporter z-score, mean = -2.22; Outcome = active
Actg1 #2: TNF reporter z-score, mean = -3.55; Outcome = active
Actg1 #3: TNF reporter z-score, mean = -6.03; Outcome = active
Actg1 #4: TNF reporter z-score, mean = 1.44; Outcome = inactive
Actg1 #5: TNF reporter z-score, mean = 0.145; Outcome = inactive
Actg1 #6: TNF reporter z-score, mean = -2.93; Outcome = active
Atf3 #1: TNF reporter z-score, mean = 2.56; Outcome = active
Atf3 #2: TNF reporter z-score, mean = -2.12; Outcome = active
Atf3 #3: TNF reporter z-score, mean = -2.7; Outcome = active
Atf3 #4: TNF reporter z-score, mean = 3.33; Outcome = active
Atf3 #5: TNF reporter z-score, mean = 0.136; Outcome = inactive
Atf3 #6: TNF reporter z-score, mean = 0.65; Outcome = inactive
Or1e32 #1: TNF reporter z-score, mean = -0.459; Outcome = inactive
Or1e32 #2: TNF reporter z-score, mean = -3.69; Outcome = active
Or1e32 #3: TNF reporter z-score, mean = -4.19; Outcome = active
Or1e32 #4: TNF reporter z-score, mean = 0.106; Outcome = inactive
Or1e32 #5: TNF reporter z-score, mean = -1.39; Outcome = inactive
Or1e32 #6: TNF reporter z-score, mean = -4.61; Outcome = active
